Source: the supplement of paper PMC7661543
The effect of the compound repeats well; differences between the knockouts mostly do not.

System: SKBR3
Assay: relative cell number vs DMSO control (72 h) (% of DMSO); higher = less growth inhibition (more cells)
Method: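 QMAP-Seq: a pool of 5 breast cancer cell lines (ZR-75-1, SKBR3, HCC-38, MDA-MB-231, BT-20), each carrying 12 doxycycline-inducible Cas9 sgRNA perturbations (11 knockouts plus non-targeting sgNT), was treated with compounds for 72 h at four 10-fold doses (10 nM-10 uM or 1 nM-1 uM range). Barcodes were amplified and sequenced, and cell number was interpolated from 293T spike-in standard curves. The result is expressed as % of the median of DMSO wells. Two biological replicates.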

CC(C)CC(=O)Nc1n[nH]c2c1CN(C(=O)C1CCN(C)CC1)C2(C)C
Conditions | relative cell number
sgRNA knockout: sgATF3, 10 nM | 119
sgRNA knockout: sgATF3, 100 nM | 59
sgRNA knockout: sgATF3, 1000 nM | 39.4
sgRNA knockout: sgATF3, 10000 nM | 7.26
sgRNA knockout: sgATF4, 10 nM | 84.5
sgRNA knockout: sgATF4, 100 nM | 67.7
sgRNA knockout: sgATF4, 1000 nM | 38.2
sgRNA knockout: sgATF4, 10000 nM | 11.7
sgRNA knockout: sgATF6, 10 nM | 105
sgRNA knockout: sgATF6, 100 nM | 81.6
sgRNA knockout: sgATF6, 1000 nM | 29.6
sgRNA knockout: sgATF6, 10000 nM | 7.12
sgRNA knockout: sgATG7, 10 nM | 104
sgRNA knockout: sgATG7, 100 nM | 71.5
sgRNA knockout: sgATG7, 1000 nM | 44.1
sgRNA knockout: sgATG7, 10000 nM | 7.03
sgRNA knockout: sgERN1, 10 nM | 85.5
sgRNA knockout: sgERN1, 100 nM | 65.2
sgRNA knockout: sgERN1, 1000 nM | 38.9
sgRNA knockout: sgERN1, 10000 nM | 7.68
sgRNA knockout: sgHSF1, 10 nM | 97.6
sgRNA knockout: sgHSF1, 100 nM | 70.5
sgRNA knockout: sgHSF1, 1000 nM | 30.3
sgRNA knockout: sgHSF1, 10000 nM | 8.32
sgRNA knockout: sgHSF2, 10 nM | 92.5
sgRNA knockout: sgHSF2, 100 nM | 62.8
sgRNA knockout: sgHSF2, 1000 nM | 32.1
sgRNA knockout: sgHSF2, 10000 nM | 7.41
sgRNA knockout: sgKEAP1, 10 nM | 97.2
sgRNA knockout: sgKEAP1, 100 nM | 64.7
sgRNA knockout: sgKEAP1, 1000 nM | 38
sgRNA knockout: sgKEAP1, 10000 nM | 11
sgRNA knockout: sgNFE2L2, 10 nM | 92.8
sgRNA knockout: sgNFE2L2, 100 nM | 76.6
sgRNA knockout: sgNFE2L2, 1000 nM | 37
sgRNA knockout: sgNFE2L2, 10000 nM | 8.44
sgRNA knockout: sgSLC35F2, 10 nM | 102
sgRNA knockout: sgSLC35F2, 100 nM | 71.9
sgRNA knockout: sgSLC35F2, 1000 nM | 38.3
sgRNA knockout: sgSLC35F2, 10000 nM | 8.23
sgRNA knockout: sgXBP1, 10 nM | 113
sgRNA knockout: sgXBP1, 100 nM | 80.5
sgRNA knockout: sgXBP1, 1000 nM | 43.7
sgRNA knockout: sgXBP1, 10000 nM | 9.48

Cc1c(Cn2c(C)nc3c(C(=O)O)cc(N4CCOCC4)cc32)cccc1C(F)(F)F
Conditions | relative cell number
sgRNA knockout: sgATF3, 10 nM | 103
sgRNA knockout: sgATF3, 100 nM | 125
sgRNA knockout: sgATF3, 1000 nM | 99.6
sgRNA knockout: sgATF3, 10000 nM | 139
sgRNA knockout: sgATF4, 10 nM | 99.5
sgRNA knockout: sgATF4, 100 nM | 111.3
sgRNA knockout: sgATF4, 1000 nM | 98
sgRNA knockout: sgATF4, 10000 nM | 108
sgRNA knockout: sgATF6, 10 nM | 109
sgRNA knockout: sgATF6, 100 nM | 85.4
sgRNA knockout: sgATF6, 1000 nM | 105
sgRNA knockout: sgATF6, 10000 nM | 103
sgRNA knockout: sgATG7, 10 nM | 94.6
sgRNA knockout: sgATG7, 100 nM | 113
sgRNA knockout: sgATG7, 1000 nM | 95.2
sgRNA knockout: sgATG7, 10000 nM | 93.1
sgRNA knockout: sgERN1, 10 nM | 123
sgRNA knockout: sgERN1, 100 nM | 124
sgRNA knockout: sgERN1, 1000 nM | 108
sgRNA knockout: sgERN1, 10000 nM | 102
sgRNA knockout: sgHSF1, 10 nM | 98.1
sgRNA knockout: sgHSF1, 100 nM | 103.5
sgRNA knockout: sgHSF1, 1000 nM | 95.1
sgRNA knockout: sgHSF1, 10000 nM | 101
sgRNA knockout: sgHSF2, 10 nM | 104
sgRNA knockout: sgHSF2, 100 nM | 88.9
sgRNA knockout: sgHSF2, 1000 nM | 90.9
sgRNA knockout: sgHSF2, 10000 nM | 86.9
sgRNA knockout: sgKEAP1, 10 nM | 108
sgRNA knockout: sgKEAP1, 100 nM | 89.6
sgRNA knockout: sgKEAP1, 1000 nM | 94.9
sgRNA knockout: sgKEAP1, 10000 nM | 98.3
sgRNA knockout: sgNFE2L2, 10 nM | 129
sgRNA knockout: sgNFE2L2, 100 nM | 104
sgRNA knockout: sgNFE2L2, 1000 nM | 106
sgRNA knockout: sgNFE2L2, 10000 nM | 109
sgRNA knockout: sgSLC35F2, 10 nM | 84.3
sgRNA knockout: sgSLC35F2, 100 nM | 108
sgRNA knockout: sgSLC35F2, 1000 nM | 117
sgRNA knockout: sgSLC35F2, 10000 nM | 94
sgRNA knockout: sgXBP1, 10 nM | 106
sgRNA knockout: sgXBP1, 100 nM | 117
sgRNA knockout: sgXBP1, 1000 nM | 90.9
sgRNA knockout: sgXBP1, 10000 nM | 106

Cc1cc(N2CCOCC2)cc2[nH]c(-c3c(NC[C@@H](O)c4cccc(Cl)c4)cc[nH]c3=O)nc12
Conditions | relative cell number
sgRNA knockout: sgATF3, 10 nM | 109
sgRNA knockout: sgATF3, 100 nM | 80.27
sgRNA knockout: sgATF3, 1000 nM | 89.7
sgRNA knockout: sgATF3, 10000 nM | 63.6
sgRNA knockout: sgATF4, 10 nM | 82.7
sgRNA knockout: sgATF4, 100 nM | 85
sgRNA knockout: sgATF4, 1000 nM | 104
sgRNA knockout: sgATF4, 10000 nM | 52.4
sgRNA knockout: sgATF6, 10 nM | 97.2
sgRNA knockout: sgATF6, 100 nM | 72.1
sgRNA knockout: sgATF6, 1000 nM | 94.5
sgRNA knockout: sgATF6, 10000 nM | 44.9
sgRNA knockout: sgATG7, 10 nM | 87.9
sgRNA knockout: sgATG7, 100 nM | 87.4
sgRNA knockout: sgATG7, 1000 nM | 83.25
sgRNA knockout: sgATG7, 10000 nM | 57.7
sgRNA knockout: sgERN1, 10 nM | 104
sgRNA knockout: sgERN1, 100 nM | 103
sgRNA knockout: sgERN1, 1000 nM | 101
sgRNA knockout: sgERN1, 10000 nM | 62
sgRNA knockout: sgHSF1, 10 nM | 86.9
sgRNA knockout: sgHSF1, 100 nM | 66.4
sgRNA knockout: sgHSF1, 1000 nM | 86.7
sgRNA knockout: sgHSF1, 10000 nM | 54.2
sgRNA knockout: sgHSF2, 10 nM | 95.4
sgRNA knockout: sgHSF2, 100 nM | 71
sgRNA knockout: sgHSF2, 1000 nM | 103
sgRNA knockout: sgHSF2, 10000 nM | 56.5
sgRNA knockout: sgKEAP1, 10 nM | 72.4
sgRNA knockout: sgKEAP1, 100 nM | 71.3
sgRNA knockout: sgKEAP1, 1000 nM | 94.3
sgRNA knockout: sgKEAP1, 10000 nM | 52.3
sgRNA knockout: sgNFE2L2, 10 nM | 80.1
sgRNA knockout: sgNFE2L2, 100 nM | 76.8
sgRNA knockout: sgNFE2L2, 1000 nM | 112
sgRNA knockout: sgNFE2L2, 10000 nM | 60.4
sgRNA knockout: sgSLC35F2, 10 nM | 87
sgRNA knockout: sgSLC35F2, 100 nM | 67.5
sgRNA knockout: sgSLC35F2, 1000 nM | 66.2
sgRNA knockout: sgSLC35F2, 10000 nM | 62.8
sgRNA knockout: sgXBP1, 10 nM | 88.4
sgRNA knockout: sgXBP1, 100 nM | 69.3
sgRNA knockout: sgXBP1, 1000 nM | 101
sgRNA knockout: sgXBP1, 10000 nM | 56.4

Cc1ccc(C(=O)N(CCCN)[C@@H](c2oc3cc(Cl)ccc3c(=O)c2Cc2ccccc2)C(C)C)cc1
Conditions | relative cell number
sgRNA knockout: sgATF3, 10 nM | 14.8
sgRNA knockout: sgATF3, 100 nM | 12.5
sgRNA knockout: sgATF3, 1000 nM | 16.2
sgRNA knockout: sgATF3, 10000 nM | 2.95
sgRNA knockout: sgATF4, 10 nM | 14.3
sgRNA knockout: sgATF4, 100 nM | 11
sgRNA knockout: sgATF4, 1000 nM | 18.9
sgRNA knockout: sgATF4, 10000 nM | 4.9
sgRNA knockout: sgATF6, 10 nM | 11.1
sgRNA knockout: sgATF6, 100 nM | 8.92
sgRNA knockout: sgATF6, 1000 nM | 17.6
sgRNA knockout: sgATF6, 10000 nM | 5.11
sgRNA knockout: sgATG7, 10 nM | 16.2
sgRNA knockout: sgATG7, 100 nM | 12.8
sgRNA knockout: sgATG7, 1000 nM | 14.1
sgRNA knockout: sgATG7, 10000 nM | 5.35
sgRNA knockout: sgERN1, 10 nM | 9.57
sgRNA knockout: sgERN1, 100 nM | 7.6
sgRNA knockout: sgERN1, 1000 nM | 14.9
sgRNA knockout: sgERN1, 10000 nM | 10.7
sgRNA knockout: sgHSF1, 10 nM | 13.6
sgRNA knockout: sgHSF1, 100 nM | 9.38
sgRNA knockout: sgHSF1, 1000 nM | 15.4
sgRNA knockout: sgHSF1, 10000 nM | 4.73
sgRNA knockout: sgHSF2, 10 nM | 15.5
sgRNA knockout: sgHSF2, 100 nM | 9.95
sgRNA knockout: sgHSF2, 1000 nM | 18.8
sgRNA knockout: sgHSF2, 10000 nM | 7.54
sgRNA knockout: sgKEAP1, 10 nM | 12.2
sgRNA knockout: sgKEAP1, 100 nM | 9.18
sgRNA knockout: sgKEAP1, 1000 nM | 14
sgRNA knockout: sgKEAP1, 10000 nM | 6.03
sgRNA knockout: sgNFE2L2, 10 nM | 11.9
sgRNA knockout: sgNFE2L2, 100 nM | 13.6
sgRNA knockout: sgNFE2L2, 1000 nM | 14.8
sgRNA knockout: sgNFE2L2, 10000 nM | 5.6
sgRNA knockout: sgSLC35F2, 10 nM | 15.2
sgRNA knockout: sgSLC35F2, 100 nM | 8.92
sgRNA knockout: sgSLC35F2, 1000 nM | 23.4
sgRNA knockout: sgSLC35F2, 10000 nM | 5.24
sgRNA knockout: sgXBP1, 10 nM | 11.6
sgRNA knockout: sgXBP1, 100 nM | 12.2
sgRNA knockout: sgXBP1, 1000 nM | 15.2
sgRNA knockout: sgXBP1, 10000 nM | 5.27
